The chains behind the UniProt entries cited, without tags or fusion partners.
UniProt P08483, whole entry: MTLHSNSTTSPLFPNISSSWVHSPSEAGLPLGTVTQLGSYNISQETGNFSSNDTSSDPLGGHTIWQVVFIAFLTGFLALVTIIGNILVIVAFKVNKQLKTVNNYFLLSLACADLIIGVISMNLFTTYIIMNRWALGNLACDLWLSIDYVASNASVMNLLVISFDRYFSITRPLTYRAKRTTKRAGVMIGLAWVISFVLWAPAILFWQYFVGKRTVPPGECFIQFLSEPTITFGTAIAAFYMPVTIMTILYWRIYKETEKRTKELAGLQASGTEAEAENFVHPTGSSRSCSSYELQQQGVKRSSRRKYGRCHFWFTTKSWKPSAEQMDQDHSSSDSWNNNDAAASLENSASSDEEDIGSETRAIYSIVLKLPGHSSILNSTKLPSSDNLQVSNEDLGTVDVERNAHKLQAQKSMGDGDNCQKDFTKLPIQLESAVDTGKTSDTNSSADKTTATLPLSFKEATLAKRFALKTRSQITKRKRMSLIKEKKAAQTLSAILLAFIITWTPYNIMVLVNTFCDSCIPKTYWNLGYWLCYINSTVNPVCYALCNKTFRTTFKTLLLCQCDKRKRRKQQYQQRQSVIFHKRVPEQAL

According to patent US5026699A, “Use of 5,11-dihydro-6H-pyrido[2,3-b][1,4]-benzodiazepin-6-ones substituted in the 11-position for treating bradycardia and bradyarrhythmia in human and veterinary medicine” (Dr. Karl Thomae GmbH, priority 1988, dated 1991):

Legend:
[1] = molecular target: T1, muscarinic receptors, heart (Rattus norvegicus, UniProt P10980); experiment: Receptor binding test in vitro, 3H-NMS displacement, whole heart homogenate; settings: rat whole heart homogenate 1:400; 0.3 nanomolar 3H-NMS; 30° C., 45 minutes; read-out: Receptor Binding Tests IC50, Heart
T1 construct: The whole heart was cut up with scissors; from tissue; host or cells: whole heart of male Sprague-Dawley rats, homogenate
T1 sequence (P10980 1-466): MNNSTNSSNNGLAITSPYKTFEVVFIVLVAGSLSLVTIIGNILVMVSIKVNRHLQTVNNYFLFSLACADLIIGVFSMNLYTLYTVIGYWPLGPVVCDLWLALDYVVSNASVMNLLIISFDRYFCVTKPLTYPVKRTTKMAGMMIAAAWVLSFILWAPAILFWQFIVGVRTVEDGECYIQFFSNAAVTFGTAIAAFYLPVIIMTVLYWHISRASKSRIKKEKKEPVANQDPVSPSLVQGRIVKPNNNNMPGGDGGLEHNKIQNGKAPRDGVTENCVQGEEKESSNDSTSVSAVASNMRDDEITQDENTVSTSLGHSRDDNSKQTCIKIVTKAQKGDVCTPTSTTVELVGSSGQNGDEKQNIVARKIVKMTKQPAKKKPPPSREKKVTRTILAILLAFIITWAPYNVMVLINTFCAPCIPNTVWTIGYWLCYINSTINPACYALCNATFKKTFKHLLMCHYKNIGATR
Description: (§1) The organs were donated by male Sprague-Dawley rats weighing 180-220 g. After the heart and submandular gland and cerebral cortex had been removed, all other steps were carried out in ice cold Hepes HCl buffer (pH 7.4; 100 millimolar NaCl, 10 millimolar MgCl2). The whole heart was cut up with scissors. All the organs were then homogenized in a Potter apparatus.
(§2) For the binding test the homogenized organs were diluted as follows:
(§3) The homogenized organs were incubated at a certain concentration of the radioligand and at a series of concentrations of the non-radioactive test substances in an Eppendorf centrifuge tube at 30° C. Incubation lasted 45 minutes. The radioligand used was 0.3 nanomolar ^3 H--N- methylscopolamine (^3 H-NMS). Incubation was ended by the addition of ice cold buffer followed by vacuum filtration. The filters were rinsed with cold buffer and their radioactivity was determined. It represents the sum of specific and non-specific binding of ^3 H-NMS. The proportion of non-specific binding was defined as the radioactivity which was bound in the presence of 1 micromolar quinuclidinylbenzylate. Each measurement was taken four times. The IC50 values of the non-labelled test substances were determined graphically. They represent that concentration of test substance at which the specific binding of ^3 H-NMS to the muscarinic receptors in the various organs was inhibited by 50%.

[2] = molecular target: T2, muscarinic receptors, submandibular gland (Rattus norvegicus, UniProt P08483); experiment: Receptor binding test in vitro, 3H-NMS displacement, submandibular gland homogenate; settings: rat submandibular gland homogenate 1:400; 0.3 nanomolar 3H-NMS; 30° C., 45 minutes; read-out: Receptor Binding Tests IC50, Submandibular gland
T2 construct: All the organs were then homogenized in a Potter apparatus; from tissue; host or cells: submandibular gland of male Sprague-Dawley rats, homogenate
Description: as §1, §2, §3

[3] = molecular target: muscarinic receptors, cerebral cortex; experiment: Receptor binding test in vitro, 3H-NMS displacement, cerebral cortex homogenate; settings: rat cerebral cortex homogenate 1:3000; 0.3 nanomolar 3H-NMS; 30° C., 45 minutes; read-out: Receptor Binding Tests IC50, Cortex
Description: as §1, §2, §3

IC50 [1]: 15 nM
IC50 [2]: 150 nM
IC50 [3]: 100 nM
Structure (SMILES): CN1CCCC1CCNCC(=O)N1c2ccccc2C(=O)Nc2cccnc21 (stereo not drawn) [A, 5,11-dihydro-11-[[[2-(1-methyl-2-pyrrolidinyl)ethyl]amino]acetyl]-6H-pyrido[2,3-b][1,4]benzodiazepin-6-one]
